Measurements reported in PubChem BioAssay AID1259424 (University of Nebraska Medical Center, 2018).

Assay: 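Rank knockdowns across the genome by resemblance to the KSR1 depletion profile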 (primary screen)
Cells: human HCT116 colon cancer cells
Reagent: siRNA pool against human genes, 50 nM
Read-out: 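Log2 levels of six mRNAs (branched-DNA multiplex), adjusted by two reference genes and the non-targeting median, then scored against the average KSR1 knockdown pattern as Pearson r and euclidean distance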
Scale: mean correlation with KSR1 profile and KSR1 correlation: higher = expression change more like KSR1 knockdown; mean distance from KSR1 profile: higher = expression change less like KSR1 knockdown
In all, the deposit lists about 14,000 reagents; this is an unselected part. 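Higher correlation or smaller distance means closer resemblance to KSR1 loss; control wells, including KSR1 knockdowns, recur on many plates.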 Reagents against one gene are numbered here. No sequences are given here. The record does not give: the time to read-out.

gene knocked down,reagent,mean correlation with KSR1 profile,mean distance from KSR1 profile,"KSR1 correlation, replicate 1","KSR1 correlation, replicate 2","KSR1 correlation, replicate 3"
KRT75,1,0.737,0.834,0.782,0.499,0.725
COQ7,1,-0.415,1.89,-0.2,-0.564,-0.509
PAK5,1,0.694,1.26,0.706,0.576,0.401
SGK1,1,0.188,1.57,0.278,0.555,-0.835
HPSE,1,-0.242,2.97,0.0314,-0.391,-0.337
H2BC4,1,-0.188,2.67,0.0325,-0.284,-0.249
SLC11A2,1,0.0877,1.86,0.248,-0.0872,0.0482
CD2BP2,1,-0.176,3.09,-0.225,-0.204,-0.248
PTPN4,1,0.866,0.46,0.93,0.398,0.713
SLC12A3,1,-0.0177,1.68,-0.0833,-0.085,0.064
RPAIN,1,0.471,1.89,0.176,0.364,0.449
TMEM51,1,-0.864,2.53,-0.66,-0.589,-0.774
FGF17,1,0.225,1.32,0.572,0.000941,0.217
SCARF2,1,0.241,1.14,0.473,-0.0307,0.189
NNMT,1,-0.0746,4.35,0.0702,-0.159,-0.152
TDP1,1,-0.482,2.98,-0.385,-0.63,-0.525
PRR11,1,-0.0522,2.01,-0.206,-0.196,-0.115
THAP10,1,-0.0154,1.59,-0.278,-0.00126,0.265
SLN,1,-0.652,1.5,-0.565,-0.757,-0.299
GPR173,1,0.53,2.38,0.583,0.699,0.456
MMP23B,1,0.696,1.33,0.522,0.669,0.379
ANXA3,1,0.0481,1.37,0.0943,-0.093,0.122
TADA2A,1,0.656,2.63,0.619,0.64,0.635
FGFBP2,1,0.896,1.32,0.838,0.866,0.551
GPR32,1,0.378,2.2,0.273,0.646,0.174
SLC7A9,1,-0.544,2.17,-0.33,-0.66,-0.398
INPP1,1,0.583,1.22,0.592,0.531,0.359
PTPN20,1,-0.426,1.69,-0.235,-0.211,-0.537
BPIFA4P,1,-0.394,3.52,-0.553,-0.53,-0.34
MXD3,1,0.471,1.99,0.383,0.499,0.445
PTX3,1,-0.187,1.36,-0.0896,-0.25,-0.201
KIF23,1,-0.0467,2.23,-0.202,-0.0567,0.0498
MIEN1,1,0.618,2.35,0.488,0.619,0.663
ADAP1,1,0.109,1.48,0.0464,0.0476,0.112
KLHDC4,1,-0.374,1.71,-0.615,-0.393,-0.516
GAGE7,1,-0.15,3.24,-0.336,0.0219,-0.147
TMEM47,1,-0.311,2.15,-0.33,-0.348,-0.259
HSPD1,1,0.219,2.37,0.343,0.325,0.177
STARD5,1,-0.392,2.27,-0.595,-0.621,-0.248
NOC2L,1,-0.659,5.53,-0.142,-0.633,-0.767
CYP51A1,1,0.421,4.49,0.414,0.274,0.0999
SOX14,1,-0.182,5.65,-0.292,0.0504,-0.428
FLJ21369 (retired record),1,0.147,1.99,0.236,0.25,0.0208
ZC3H11A,1,0.415,1.75,0.412,0.638,0.24
KCNG2,1,-0.89,2.45,-0.835,-0.869,-0.939
SPMIP6,1,0.571,1.16,0.124,0.557,0.6
IL38,1,0.0329,4.13,0.0694,-0.0871,-0.207
ASB2,1,-0.0417,1.8,-0.3,0.0787,-0.116
GFOD1,1,-0.299,1.95,-0.0959,-0.165,-0.26
GFOD1,2,0.576,1.49,0.535,0.513,0.553

Looked up above:
For “mean correlation with KSR1 profile”, KIF23 reads -0.0467
Under “KSR1 correlation, replicate 1”, PTX3 reads -0.0896
MIEN1, KSR1 correlation, replicate 3 = 0.663
Result of IL38 under “mean correlation with KSR1 profile”: 0.0329
TADA2A, mean distance from KSR1 profile: 2.63
SLC12A3, mean distance from KSR1 profile → 1.68
